Measurements: article PMC12040169 (PLOS Biology, 2025)
This is one part of the list.

Tested on: T1, CTL2-GFP (C. trachomatis L2/434/Bu, GFP-expressing)
T1 construct: L2/434/Bu, GFP-expressing
Design: species or system HeLa; Intracellular C. trachomatis growth in HeLa cells, bulk GFP fluorescence relative to DMSO
Details: bulk GFP, single well; 28.5 h, 10 µM; inhibitor

| SMILES | % of control remaining [%] |
| --- | --- |
| C/C(CC(=O)Nc1ccccc1C(N)=O)=N\NC(=O)c1ccoc1C [CBK262957] | 119.187 |
| Cc1oc(NC(=O)CN2CCN(c3cccc(Cl)c3)CC2)c(C#N)c1C [CBK305906] | 122.56 |
| O=C(Cn1nnc2ccccc21)c1ccc2c(c1)CCN2S(=O)(=O)c1ccccc1 [CBK286464] | 87.9861 |
| Cc1cc(-c2cc(C)[nH]n2)[nH]n1 [CBK262079] | 103.826 |
| CCN1/C(=C/C(=C/c2sc3ccccc3[n+]2CCCS(=O)(=O)[O-])OC)Sc2ccccc21 [CBK278203] | 100 |
| C=CCn1c(N2CCC(C(=O)NC3CC3)CC2)nc2ccccc21 [CBK283924] | 127.809 |
| Cc1csc(C(Cc2cccs2)NC(=O)C2CCC(=O)N2)n1 (stereo not shown) [CBK285056] | 114.337 |
| CCOC(=O)CN(Cc1ccccc1)Cc1cccc(OC)c1 [CBK126459] | 73.939 |
| O=C1CN(C(=O)c2cccc(Cl)c2)c2ccccc2N1 [CBK017844] | 93.9217 |
| Nn1c(SCC(=O)Nc2ccc3c(c2)oc2ccccc23)nnc1-c1ccc(Cl)cc1Cl [CBK265090] | 100 |
| CC1CC(C)CN(C(=O)c2ccccc2NC(=O)C2CC(=O)Nc3ccccc32)C1 (stereo not shown) [CBK297760] | 170.452 |
| CN1CCN(Cc2nc3c([nH]2)c(=O)n(C)c(=O)n3C)CC1 [CBK269578] | 63.0296 |
| CN1CCN(CCCOc2ccccc2OCc2ccccc2)CC1 [CBK269630C] | 139.364 |
| CCS(=O)(=O)N1CCC(c2onc3c2CCCCC3)CC1 [CBK284497] | 93.9154 |
| O=C(CCC(=O)c1ccc(Cl)cc1)OCC(=O)c1cccc(I)c1 [CBK264760] | 119.529 |
| CCCSc1nnc(-c2ccccc2NC(=O)CC)c(O)n1 [CBK265081] | 120.431 |
| CCc1nnc(NS(=O)(=O)c2ccc(NC(=O)c3ccc(Cl)cc3Cl)cc2)s1 [CBK045493] | 97.6974 |
| CN1CCN(CCCCOc2ccc(Cc3ccccc3)cc2)CC1 [CBK269692C] | 135.16 |
| O=C(CSc1nnc(-c2ccncc2)n1-c1ccccc1)c1ccc(Br)cc1 [CBK266758] | 141.178 |
| C#CCNC(=O)[C@@H]1Cc2cn(Cc3cc(C)on3)c3cccc(c23)[C@H](CC(C)C)N1 [CBK289426] | 116.51 |
| Cn1ncc2c(C(=O)O)cc(-c3ccccc3)nc21 [CBK288024] | 108.497 |
| COc1ccc(S(=O)(=O)N(C)CC(=O)Nc2ccc(Br)cc2F)cc1Cl [CBK267916] | 128.501 |

Two of the compounds above, with tabs:
SMILES	% of control remaining [%]
CCOC(=O)CN(Cc1ccccc1)Cc1cccc(OC)c1 [CBK126459]	73.939
O=C1CN(C(=O)c2cccc(Cl)c2)c2ccccc2N1 [CBK017844]	93.9217
